# The other results are listed elsewhere or left out. The data scatter; read single values as rough.
# Protein sequences, listed by entry. Tags and fused reporters are not part of them. Lines headed by an entry give the natural chain unless they say otherwise; changes in a name come on top. Residues count along the entry.
# UniProt O75420: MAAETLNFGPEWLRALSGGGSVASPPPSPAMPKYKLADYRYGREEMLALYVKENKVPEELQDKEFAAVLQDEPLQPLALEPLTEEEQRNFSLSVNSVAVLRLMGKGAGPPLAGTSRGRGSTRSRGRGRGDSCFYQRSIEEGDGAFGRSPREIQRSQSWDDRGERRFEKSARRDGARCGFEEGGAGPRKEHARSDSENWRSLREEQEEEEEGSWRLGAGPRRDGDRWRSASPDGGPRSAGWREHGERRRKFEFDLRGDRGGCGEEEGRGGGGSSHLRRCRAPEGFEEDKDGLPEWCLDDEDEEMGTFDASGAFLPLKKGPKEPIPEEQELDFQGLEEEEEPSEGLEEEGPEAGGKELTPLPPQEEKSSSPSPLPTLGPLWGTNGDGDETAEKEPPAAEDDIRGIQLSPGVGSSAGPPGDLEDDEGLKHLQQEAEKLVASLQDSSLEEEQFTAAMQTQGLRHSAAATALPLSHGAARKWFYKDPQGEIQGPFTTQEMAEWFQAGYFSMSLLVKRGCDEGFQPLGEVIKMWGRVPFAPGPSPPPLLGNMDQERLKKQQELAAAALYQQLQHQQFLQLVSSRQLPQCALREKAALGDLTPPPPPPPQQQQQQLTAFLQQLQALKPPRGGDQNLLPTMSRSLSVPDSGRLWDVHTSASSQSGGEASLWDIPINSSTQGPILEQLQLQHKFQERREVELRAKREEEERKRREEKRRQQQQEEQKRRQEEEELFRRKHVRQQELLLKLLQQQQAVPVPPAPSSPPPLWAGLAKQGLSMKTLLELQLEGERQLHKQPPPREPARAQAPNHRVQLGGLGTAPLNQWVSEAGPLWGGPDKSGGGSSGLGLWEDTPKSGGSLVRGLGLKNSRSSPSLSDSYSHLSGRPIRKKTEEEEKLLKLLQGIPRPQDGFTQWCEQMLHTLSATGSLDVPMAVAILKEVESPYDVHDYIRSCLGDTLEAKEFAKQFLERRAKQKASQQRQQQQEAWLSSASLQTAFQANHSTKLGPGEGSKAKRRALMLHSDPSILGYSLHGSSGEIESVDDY
# UniProt Q17RS7, 612-638: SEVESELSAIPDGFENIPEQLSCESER
# UniProt Q13322, 201-222: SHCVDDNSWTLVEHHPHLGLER
# UniProt Q9BYB4: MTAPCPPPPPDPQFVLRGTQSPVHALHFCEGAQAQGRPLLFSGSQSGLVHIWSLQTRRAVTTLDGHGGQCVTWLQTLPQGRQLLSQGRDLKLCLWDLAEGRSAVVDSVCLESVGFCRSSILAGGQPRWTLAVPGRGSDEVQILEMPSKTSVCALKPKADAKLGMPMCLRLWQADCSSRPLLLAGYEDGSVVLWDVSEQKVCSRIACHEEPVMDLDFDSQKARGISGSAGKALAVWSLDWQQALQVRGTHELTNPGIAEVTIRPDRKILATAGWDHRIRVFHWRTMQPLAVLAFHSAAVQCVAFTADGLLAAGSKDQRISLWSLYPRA
# UniProt Q4ZG55, 1783-1802: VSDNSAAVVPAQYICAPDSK
# UniProt Q9UKD1, 79-100: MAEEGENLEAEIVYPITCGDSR
# UniProt Q9NZC3: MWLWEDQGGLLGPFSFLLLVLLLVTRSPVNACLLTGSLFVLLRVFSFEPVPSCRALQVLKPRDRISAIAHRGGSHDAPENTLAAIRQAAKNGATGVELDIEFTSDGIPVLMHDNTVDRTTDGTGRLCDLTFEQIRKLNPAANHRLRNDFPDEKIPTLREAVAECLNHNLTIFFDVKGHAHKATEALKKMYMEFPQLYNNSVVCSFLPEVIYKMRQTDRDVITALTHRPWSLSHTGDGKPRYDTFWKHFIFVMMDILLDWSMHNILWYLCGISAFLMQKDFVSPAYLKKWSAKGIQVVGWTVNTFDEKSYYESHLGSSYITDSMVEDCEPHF
# UniProt Q14344, whole entry, looked up: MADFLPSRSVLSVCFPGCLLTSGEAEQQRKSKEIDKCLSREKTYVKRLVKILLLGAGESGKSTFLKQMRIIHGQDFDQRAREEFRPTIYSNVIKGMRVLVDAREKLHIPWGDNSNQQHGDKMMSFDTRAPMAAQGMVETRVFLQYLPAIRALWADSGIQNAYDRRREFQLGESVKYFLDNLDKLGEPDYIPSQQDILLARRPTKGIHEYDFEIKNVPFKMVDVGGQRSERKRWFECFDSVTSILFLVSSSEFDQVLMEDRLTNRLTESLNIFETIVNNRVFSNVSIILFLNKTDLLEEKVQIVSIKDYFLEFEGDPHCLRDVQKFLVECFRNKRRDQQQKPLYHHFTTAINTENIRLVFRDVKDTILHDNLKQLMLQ
# UniProt Q9BVM4: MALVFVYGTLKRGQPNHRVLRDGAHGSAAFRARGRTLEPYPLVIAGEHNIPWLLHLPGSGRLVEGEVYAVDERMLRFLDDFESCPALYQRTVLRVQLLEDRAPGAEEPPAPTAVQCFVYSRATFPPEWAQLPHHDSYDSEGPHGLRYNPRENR
# UniProt Q92616, whole entry, looked up: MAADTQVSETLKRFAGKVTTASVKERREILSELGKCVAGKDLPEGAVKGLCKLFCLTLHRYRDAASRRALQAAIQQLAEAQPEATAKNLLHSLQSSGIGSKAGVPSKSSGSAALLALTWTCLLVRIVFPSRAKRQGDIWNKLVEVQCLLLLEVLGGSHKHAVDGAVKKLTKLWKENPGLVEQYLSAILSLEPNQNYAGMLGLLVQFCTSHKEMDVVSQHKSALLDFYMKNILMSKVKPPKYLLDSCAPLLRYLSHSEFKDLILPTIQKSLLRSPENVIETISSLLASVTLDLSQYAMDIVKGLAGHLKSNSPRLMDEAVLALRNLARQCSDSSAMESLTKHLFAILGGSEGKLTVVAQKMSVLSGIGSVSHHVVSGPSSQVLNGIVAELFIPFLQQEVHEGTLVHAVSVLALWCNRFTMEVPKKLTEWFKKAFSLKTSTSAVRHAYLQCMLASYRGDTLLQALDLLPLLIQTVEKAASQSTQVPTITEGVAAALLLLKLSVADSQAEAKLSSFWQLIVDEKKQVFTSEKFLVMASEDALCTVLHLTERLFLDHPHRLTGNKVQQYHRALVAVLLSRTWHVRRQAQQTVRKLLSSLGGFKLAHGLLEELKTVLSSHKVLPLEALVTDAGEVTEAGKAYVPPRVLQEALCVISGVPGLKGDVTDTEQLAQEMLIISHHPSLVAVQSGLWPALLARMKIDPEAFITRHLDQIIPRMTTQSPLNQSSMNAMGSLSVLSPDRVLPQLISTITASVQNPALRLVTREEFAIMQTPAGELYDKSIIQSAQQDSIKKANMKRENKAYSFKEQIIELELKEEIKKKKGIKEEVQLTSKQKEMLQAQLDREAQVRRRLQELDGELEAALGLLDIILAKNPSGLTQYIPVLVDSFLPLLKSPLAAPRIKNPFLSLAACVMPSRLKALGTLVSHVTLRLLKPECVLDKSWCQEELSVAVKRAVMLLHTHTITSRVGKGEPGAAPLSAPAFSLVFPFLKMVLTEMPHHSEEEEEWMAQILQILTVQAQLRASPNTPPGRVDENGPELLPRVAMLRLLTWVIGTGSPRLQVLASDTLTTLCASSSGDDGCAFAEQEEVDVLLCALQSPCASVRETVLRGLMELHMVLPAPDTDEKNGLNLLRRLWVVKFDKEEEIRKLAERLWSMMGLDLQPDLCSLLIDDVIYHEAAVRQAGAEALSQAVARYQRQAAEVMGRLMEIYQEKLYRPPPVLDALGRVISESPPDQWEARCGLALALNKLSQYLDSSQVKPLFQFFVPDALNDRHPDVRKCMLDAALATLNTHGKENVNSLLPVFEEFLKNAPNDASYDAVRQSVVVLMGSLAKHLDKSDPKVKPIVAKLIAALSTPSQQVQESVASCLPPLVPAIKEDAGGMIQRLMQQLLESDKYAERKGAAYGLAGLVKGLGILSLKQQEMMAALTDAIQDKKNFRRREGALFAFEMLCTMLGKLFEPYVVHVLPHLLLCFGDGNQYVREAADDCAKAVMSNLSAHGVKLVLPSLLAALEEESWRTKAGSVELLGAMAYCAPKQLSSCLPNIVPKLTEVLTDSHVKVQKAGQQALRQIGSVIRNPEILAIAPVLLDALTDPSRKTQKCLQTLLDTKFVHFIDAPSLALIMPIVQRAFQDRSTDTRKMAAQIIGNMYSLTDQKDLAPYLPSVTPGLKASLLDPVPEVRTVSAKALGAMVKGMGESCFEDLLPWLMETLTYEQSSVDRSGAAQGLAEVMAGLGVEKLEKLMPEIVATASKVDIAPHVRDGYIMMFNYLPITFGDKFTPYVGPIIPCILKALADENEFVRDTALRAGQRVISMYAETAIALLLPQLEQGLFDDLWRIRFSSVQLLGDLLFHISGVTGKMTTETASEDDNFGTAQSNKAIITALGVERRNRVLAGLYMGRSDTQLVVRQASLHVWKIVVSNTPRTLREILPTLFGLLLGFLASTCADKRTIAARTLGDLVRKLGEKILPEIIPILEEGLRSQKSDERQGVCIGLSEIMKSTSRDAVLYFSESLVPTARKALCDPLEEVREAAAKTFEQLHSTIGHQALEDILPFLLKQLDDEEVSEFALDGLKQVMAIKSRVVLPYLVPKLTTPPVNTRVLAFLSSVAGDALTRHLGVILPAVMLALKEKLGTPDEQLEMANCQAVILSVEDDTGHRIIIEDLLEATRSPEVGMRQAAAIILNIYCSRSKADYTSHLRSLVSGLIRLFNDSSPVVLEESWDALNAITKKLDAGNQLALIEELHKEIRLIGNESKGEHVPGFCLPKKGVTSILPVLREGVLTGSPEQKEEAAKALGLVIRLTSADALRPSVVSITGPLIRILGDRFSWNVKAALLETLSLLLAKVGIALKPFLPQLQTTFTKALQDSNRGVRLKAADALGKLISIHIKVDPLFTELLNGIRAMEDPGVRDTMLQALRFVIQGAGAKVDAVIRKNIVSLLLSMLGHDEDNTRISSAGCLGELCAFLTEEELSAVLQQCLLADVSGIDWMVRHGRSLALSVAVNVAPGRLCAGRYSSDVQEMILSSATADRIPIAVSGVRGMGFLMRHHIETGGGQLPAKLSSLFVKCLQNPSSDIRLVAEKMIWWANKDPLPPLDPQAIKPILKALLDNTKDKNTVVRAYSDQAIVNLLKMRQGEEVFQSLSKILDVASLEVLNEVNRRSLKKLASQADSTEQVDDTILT
# UniProt P16278, 420-442: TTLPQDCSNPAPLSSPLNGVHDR
# UniProt Q8N335: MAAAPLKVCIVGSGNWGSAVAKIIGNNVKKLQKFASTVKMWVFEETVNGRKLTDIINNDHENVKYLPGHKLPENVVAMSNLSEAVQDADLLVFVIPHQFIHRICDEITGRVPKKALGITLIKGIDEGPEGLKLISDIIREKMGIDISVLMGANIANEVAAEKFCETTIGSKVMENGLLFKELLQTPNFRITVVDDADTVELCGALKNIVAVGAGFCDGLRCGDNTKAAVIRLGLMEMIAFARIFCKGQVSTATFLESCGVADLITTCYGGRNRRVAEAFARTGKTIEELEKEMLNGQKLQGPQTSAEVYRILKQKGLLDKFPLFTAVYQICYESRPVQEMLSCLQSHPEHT
# UniProt Q9NZD2: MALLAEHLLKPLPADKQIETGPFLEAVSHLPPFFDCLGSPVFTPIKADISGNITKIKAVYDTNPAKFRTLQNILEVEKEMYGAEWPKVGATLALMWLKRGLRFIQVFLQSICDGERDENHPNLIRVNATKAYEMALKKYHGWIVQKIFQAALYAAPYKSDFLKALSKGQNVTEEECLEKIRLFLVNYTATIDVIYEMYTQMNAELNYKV
# UniProt P62873: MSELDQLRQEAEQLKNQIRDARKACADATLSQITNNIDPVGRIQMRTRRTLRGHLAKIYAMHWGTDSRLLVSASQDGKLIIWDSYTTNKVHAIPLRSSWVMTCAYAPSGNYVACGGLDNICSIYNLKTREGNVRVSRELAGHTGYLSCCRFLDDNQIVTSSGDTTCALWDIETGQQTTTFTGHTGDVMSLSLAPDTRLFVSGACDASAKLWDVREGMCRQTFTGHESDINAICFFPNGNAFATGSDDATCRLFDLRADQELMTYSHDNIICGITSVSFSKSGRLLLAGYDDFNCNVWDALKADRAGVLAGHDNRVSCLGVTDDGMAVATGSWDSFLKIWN
# UniProt P62879: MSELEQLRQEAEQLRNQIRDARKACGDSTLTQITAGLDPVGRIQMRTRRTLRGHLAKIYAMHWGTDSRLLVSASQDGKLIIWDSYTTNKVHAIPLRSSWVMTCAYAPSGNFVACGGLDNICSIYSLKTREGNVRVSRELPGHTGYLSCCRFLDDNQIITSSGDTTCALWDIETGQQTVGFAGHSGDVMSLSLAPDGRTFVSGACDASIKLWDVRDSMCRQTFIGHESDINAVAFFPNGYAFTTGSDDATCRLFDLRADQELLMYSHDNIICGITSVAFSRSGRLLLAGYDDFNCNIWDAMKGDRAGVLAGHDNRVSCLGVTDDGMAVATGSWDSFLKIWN
# UniProt Q49A26, 241-269: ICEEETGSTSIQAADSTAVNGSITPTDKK
# UniProt Q9BRX5: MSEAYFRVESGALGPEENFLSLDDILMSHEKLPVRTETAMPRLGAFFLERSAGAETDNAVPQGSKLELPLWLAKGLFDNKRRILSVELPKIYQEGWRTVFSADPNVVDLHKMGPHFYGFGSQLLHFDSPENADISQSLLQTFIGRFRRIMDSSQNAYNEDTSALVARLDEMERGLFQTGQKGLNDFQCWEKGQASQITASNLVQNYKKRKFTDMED
# UniProt Q92947, 171-194: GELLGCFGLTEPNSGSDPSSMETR
# UniProt Q9HC44, 359-390: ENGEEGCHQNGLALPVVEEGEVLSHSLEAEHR
# UniProt Q9NQX3, 209-243: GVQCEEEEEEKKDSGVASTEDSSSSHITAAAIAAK
# Assays:
# [1] = compound: ClCC(=O)N[C@@H]1CCCc2ccccc12; experiment: log2 mean competition ratio of IA-DTB cysteine labelling (DMSO/compound) (log2 ratio); higher = stronger cysteine engagement by compound; conditions: treatment time: 4 h, cell line lysate: HEK293T
# Method: (§1)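 IA-DTB competitive cysteine chemoproteomics in HEK293T RIPA lysate. Lysates were treated with compound 29 or 30 at 50 or 200 µM for 4 h, then IA-DTB (500 µM, 1 h), trypsin-digested, NeutrAvidin-enriched and analysed by diaPASEF. Competition ratio = intensity DMSO / intensity compound (n=4 treated, n=64 DMSO); binding: mean log2 CR ≥ 1 and p ≤ 0.05 plus QC filters. Target is the cysteine site.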
# [2] = compound: ClCC(=O)N[C@H]1CCCc2ccccc12; experiment: as above; conditions: treatment time: 4 h, cell line lysate: HEK293T
# Method: as §1
Target,log2 mean competition ratio ([1]; 50 µM),log2 mean competition ratio ([1]; 200 µM),log2 mean competition ratio ([2]; 50 µM),log2 mean competition ratio ([2]; 200 µM)
GNAI3 C66 (UniProt P08754),-0.318,0.0039,,
GPATCH1 C534 (UniProt Q9BRR8),,-0.489,,
GIGYF1 C583 (UniProt O75420),0.372,,,
GPD2 C270 (UniProt P43304),-0.245,0.0828,,
GNL2 C336 (UniProt Q13823),0.17,0.0224,,
GSPT1 C237 (UniProt P15170),-0.198,0.0534,,
GPCPD1 C205 (UniProt Q9NPB8),-0.282,-0.274,,
GFPT1 C254 (UniProt Q06210),0.234,0.272,,
GCFC2 C595 (UniProt P16383),-0.184,0.0757,,
GEN1 C634 (UniProt Q17RS7),-0.388,0.185,,
GNPAT C668 (UniProt O15228),-0.0244,-0.0671,,
GBF1 C1110 (UniProt Q92538),-0.152,0.225,,
GRB10 C203 (UniProt Q13322),0.534,0.261,,
GNB1L C5 (UniProt Q9BYB4),-0.157,-0.232,,
GPRIN1 C46 (UniProt Q7Z2K8),0.0244,0.086,,
GREB1 C1202 (UniProt Q4ZG55),0.329,0.0429,,
GMEB2 C117 (UniProt Q9UKD1),0.549,-0.0272,,
GRK3 C340 (UniProt P35626),-0.146,-0.105,,
GDE1 C53 (UniProt Q9NZC3),,-0.213,,
GPATCH11 C95 (UniProt Q8N954),0.118,-0.0212,,
GNA13 C329 (UniProt Q14344),0.243,0.00746,,
GEMIN4 C382 (UniProt P57678),-0.414,0.0616,,
GCAT C106 (UniProt O75600),0.57,0.17,,
GLUD1 C172 (UniProt P00367),-0.0808,0.228,,

Target,log2 mean competition ratio ([1]; 50 µM),log2 mean competition ratio ([1]; 200 µM),log2 mean competition ratio ([2]; 50 µM),log2 mean competition ratio ([2]; 200 µM)
GCC2 C257 (UniProt Q8IWJ2),0.0422,-0.256,,
GGACT C84 (UniProt Q9BVM4),0.0981,0.0624,,
GCN1 C1781 (UniProt Q92616),0.459,-0.116,,
GCFC2 C320 (UniProt P16383),0.165,0.464,,
GLB1 C426 (UniProt P16278),-0.241,-0.266,,
GPD1L C202 (UniProt Q8N335),-0.0937,0.181,,
GLTP C176 (UniProt Q9NZD2),0.0651,-0.546,,
GRHPR C288 (UniProt Q9UBQ7),0.383,0.166,,
GFER C95 (UniProt P55789),-0.468,0.231,,
GCN1 C1482 (UniProt Q92616),-0.148,0.176,,
GDI2 C282,0.151,0.26,,
GNB1 C204 (UniProt P62873),0.0339,0.0613,,
GOLPH3 C280 (UniProt Q9H4A6),-0.376,0.383,,
GK;GK3P C421;(C415),0.107,-0.122,-0.309,-0.159
GIGYF2 C573 (UniProt Q6Y7W6),-0.0304,-0.0795,0.0723,-0.0166
GNAI3 C139 (UniProt P08754),-0.0277,-0.0405,,
GLB1 C393 (UniProt P16278),-0.185,-0.0843,,
GPRIN1 C428 (UniProt Q7Z2K8),-0.164,0.334,,
GNB2 C204 (UniProt P62879),-0.0762,-0.141,,
GPT2 C281 (UniProt Q8TD30),-0.588,0.272,,
GLYR1 C242 (UniProt Q49A26),-0.34,-0.0773,,
GREB1 C1797 (UniProt Q4ZG55),0.173,-0.533,,
GCC2 C1306 (UniProt Q8IWJ2),-0.0276,0.108,-0.289,
GINS3 C188 (UniProt Q9BRX5),0.0736,-0.255,,

# An excerpt taken from the entries so far:
Target,log2 mean competition ratio ([1]; 50 µM),log2 mean competition ratio ([1]; 200 µM),log2 mean competition ratio ([2]; 50 µM),log2 mean competition ratio ([2]; 200 µM)
GLB1 C426 (UniProt P16278),-0.241,-0.266,,
GPD1L C202 (UniProt Q8N335),-0.0937,0.181,,
GLTP C176 (UniProt Q9NZD2),0.0651,-0.546,,
GRHPR C288 (UniProt Q9UBQ7),0.383,0.166,,

# (continued)

Target,log2 mean competition ratio ([1]; 50 µM),log2 mean competition ratio ([1]; 200 µM),log2 mean competition ratio ([2]; 50 µM),log2 mean competition ratio ([2]; 200 µM)
GNL3 C234 (UniProt Q9BVP2),-0.134,0.016,0.926,0.308
GNA11 C144 (UniProt P29992),-0.0209,0.0775,0.25,0.13
GCDH C176 (UniProt Q92947),-0.162,-0.222,,
GIT1 C122 (UniProt Q9Y2X7),0.166,0.486,-0.198,
GMPR C186 (UniProt P36959),-0.208,-0.12,,
GPT2 C265 (UniProt Q8TD30),0.0385,0.215,0.238,0.00686
GPBP1L1 C365 (UniProt Q9HC44),-0.191,-0.169,,
GOLGA3 C769 (UniProt Q08378),-0.127,-0.397,,
GPHN C284 (UniProt Q9NQX3),0.0959,0.039,0.332,0.173
GEMIN5 C867 (UniProt Q8TEQ6),-0.101,0.292,,
GBF1 C1588 (UniProt Q92538),0.0841,-0.292,0.0946,-0.166
GNL3 C251 (UniProt Q9BVP2),0.122,0.0996,,
GEMIN5 C806 (UniProt Q8TEQ6),-0.153,-0.0532,,
GCN1 C932 (UniProt Q92616),-0.14,0.476,,
GPX4 C93 (UniProt P36969),-0.162,-0.224,,
GOLPH3 C108 (UniProt Q9H4A6),0.0675,0.00201,,
GPHN C212 (UniProt Q9NQX3),-0.31,-0.432,-0.338,-0.444
GPRIN3 C172,0.686,0.4,,0.355
GCC1 C460 (UniProt Q96CN9),0.274,-0.389,,
GIGYF1 C261 (UniProt O75420),-0.0469,0.0481,,
GRWD1 C235 (UniProt Q9BQ67),-0.118,0.291,0.0425,0.29
GPS1 C192,-0.00471,0.0229,0.0273,0.0856
GMEB2 C96 (UniProt Q9UKD1),0.0817,0.415,0.258,-0.231

# From the supplement of paper PMC11732987, “Enantioselective OTUD7B fragment discovery through chemoproteomics screening and high-throughput optimisation” (Communications Chemistry, 2025)
